In PubChem BioAssay AID504834 (National Center for Advancing Translational Sciences (NCATS), 2011):
In all, about 320,000 compounds went through this assay and about 22,000 (6.9%) were called active. This list was built around the results that the source calls inconclusive (neither active nor inactive); the mix of calls is not that of the screen. The call rests on the fitted dose curve; in most records, active means well fitted inhibition curve with a large enough effect; inconclusive means small, poorly fitted or top-dose-only effect, or another doubt; inactive means no such curve, though single readings can be large or run the other way. Potencies beside an inconclusive call are fits to weak or partial responses and may not hold up.

Assay: Primary qHTS for delayed death inhibitors of the malarial parasite plastid, 96 hour incubation
Settings: P. falciparum luciferase reporter growth; series mostly up to 28.7 µM
How it was run: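 Plates of compound plus infected erythrocytes (2% hematocrit, 0.05% parasitemia final) incubate 96 hours, 37 C, 5% CO2. Detection reagent added; reduced luminescence from the parasites' luciferase reporter flags inhibition.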
Potency means the concentration at half of the fitted maximal effect.

SMILES	Potency
CS(=O)(=O)N1CCN(C(=O)c2ccc(-c3ccccc3)cc2)CC1	inconclusive: 9.28 µM [inhibitor, single point]
CCOc1cc(CNCc2ccc3c(c2)OCO3)ccc1OC	inactive
Cc1ccc(NC(=O)CSc2nc3ccccc3c(=O)n2Cc2cccs2)cc1	inconclusive: 18.5 µM [inhibitor, single point]
CCOC(=O)c1c(C)n(C)c2cc(CN(C)C)c(O)c(S(=O)(=O)c3ccccc3)c12	inconclusive: 11.7 µM [inhibitor, single point]
COCCOC(=O)c1ccc(NC(=O)COc2ccc([N+](=O)[O-])cc2)cc1	inconclusive: 10.4 µM [inhibitor, partial curve, poor fit]
COc1ccccc1NC(=O)c1ccc2c(c1)OCO2	inconclusive: 0.415 µM [inhibitor, full curve]
CCOc1ccc(NC(=O)CC2S/C(=N/N=C3CCCCCC3)NC2=O)cc1 (centres undefined)	inconclusive: 8.28 µM [inhibitor, partial curve, poor fit]
CCOC(=O)COc1c(Cl)cc(C2NC(=S)NC(c3ccccc3)=C2C(C)=O)cc1OCC (centres undefined)	inconclusive: 18.5 µM [inhibitor, single point]
COc1ccc([N+](=O)[O-])cc1/C=N/NC(=O)CNC(=O)c1cccc(F)c1	active: 1.85 µM
COc1ccc(OC)c(CN2CCCC(C(=O)c3sccc3C)C2)c1 (centres undefined)	inconclusive: 18.5 µM [inhibitor, single point]
Oc1ccccc1C1CCCCC1c1ccccc1 (centres undefined)	inconclusive: 0.738 µM [inhibitor, full curve, poor fit]
COc1ccc(C)cc1NCc1ccc([N+](=O)[O-])cc1	inconclusive: 7.38 µM [inhibitor, partial curve]
C=CCOc1cccc(C2/C(=C(/O)c3ccc(F)cc3)C(=O)C(=O)N2CCN2CCOCC2)c1 (centres undefined)	inconclusive: 1.85 µM [inhibitor, full curve, poor fit]
COCCn1c(C)cc(C(=O)COC(=O)c2ccc(N3CCCC3=O)cc2)c1C	inconclusive: 11.7 µM [inhibitor, single point]
Cc1ccc2nc(-c3cccc(S(=O)(=O)N(C)C)c3)cn2c1	inactive
Clc1ccccc1C1=Nn2c(nnc2-c2ccco2)SC1	inactive
CCOc1ccc(NC(=O)CN(C)C(=O)c2cccc3ccccc23)cc1OCC	inconclusive: 7.38 µM [inhibitor, partial curve, poor fit]
Cc1ccccc1N(C(=O)Cn1nnc(-c2cccs2)n1)C(C(=O)NCCC(C)C)c1ccco1 (centres undefined)	inconclusive: 5.22 µM [inhibitor, partial curve]
CCn1c(CSc2nc3ccccc3s2)nc2ccccc21	inconclusive: 13.1 µM [inhibitor, single point]
COc1cc(NC(=O)CCN2CCN(c3ccccc3F)CC2)cc(OC)c1	inconclusive: 5.86 µM [inhibitor, partial curve, poor fit]
O=C(CN1C(=O)CSC1=O)N1CCc2ccccc2C1	inconclusive: 0.329 µM [inhibitor, partial curve, poor fit]
COc1ccc(O[C@H]2C=C[C@@H](c3ccccc3)O[C@@H]2COC(=O)CC/C(C)=N/O[C@H](C)c2cn([C@@H]3COC[C@H]3O)nn2)cc1	inconclusive: 16.5 µM [inhibitor, single point]

SMILES	Potency
O=C(CSc1nnnn1-c1cccc(Cl)c1)Nc1ccc2c(c1)CCC2	active: 1.85 µM
COc1cc(CCC(=O)Nc2cc(C)cc(C)c2)cc(OC)c1OC	inconclusive: 18.5 µM [inhibitor, single point]
O=C(Cc1ccccc1)Nc1ccccc1Sc1ccccc1	inconclusive: 0.0586 µM [inhibitor, full curve, poor fit]
CC(OC(=O)C1CCC(=O)N1)C(=O)Nc1cc(Cl)cc(Cl)c1 (centres undefined)	inactive
C/C(=N\NC(=O)c1ccccc1O)c1cccc(NC(=O)c2ccccc2)c1	inconclusive: 14.7 µM [inhibitor, single point]
CC(C)c1ccc(OCc2ccc(C(=O)O)o2)cc1	inactive
Cn1c(SCC(=O)Nc2sc3c(c2C#N)CCC3)nnc1C1COc2ccccc2O1 (centres undefined)	inconclusive: 8.28 µM [inhibitor, partial curve, poor fit]
CCCCCn1nc(C)c(/C=N\NC(=O)c2cc(C)oc2C)c1C	inactive
FC(F)(F)c1cnc(-c2cnc(-c3cccnc3)nc2)c(Cl)c1	inactive
CCOC(=O)[C@@H]1[C@H]2COc3cc(OC)ccc3[C@@H]2N2C(=O)N(c3ccc(Br)cc3)C(=O)[C@@]12C	inactive
O=C(CCCOc1ccccc1)Nc1ccc2c(c1)OCCO2	inactive
O=C(Nc1ccc(Cl)cc1)NC1CCCCC1Cc1ccco1 (centres undefined)	inconclusive: 16.5 µM [inhibitor, single point]
O=C1CCc2cc(NS(=O)(=O)c3ccccc3)cc3c2N1CCC3	inconclusive: 18.5 µM [inhibitor, single point]
Cc1ccc(/C(O)=C2\C(=O)C(=O)N(C)C2c2ccc(F)cc2)cc1 (centres undefined)	inconclusive: 0.657 µM [inhibitor, full curve, poor fit]
O=C(NCc1ccccc1)C(c1cccnc1)N(C(=O)c1ccccn1)c1cccc(F)c1 (centres undefined)	inactive
CC(=O)c1cccc(NC(=O)C2CCCCC2)c1	active: 1.47 µM
S=c1[nH]ccn1Cc1ccccc1	inactive
O=S(=O)(Cc1ccccc1Cl)N1CCCC1	inconclusive: 1.65 µM [inhibitor, full curve, poor fit]
Cc1cc(N)n(-c2ccc(C(=O)O)cc2)n1	inconclusive: 2.62 µM [inhibitor, full curve, poor fit]
COc1cc(OC)cc(C(=O)Nc2ccc3nc4n(c(=O)c3c2)CCCCC4)c1	active: 13.1 µM
Fc1cccc(/C=N/Nc2nc3ccccc3[nH]2)c1	inconclusive: 0.465 µM [inhibitor, full curve, poor fit]
COc1cccc(-c2nnn(CCC(=O)O)n2)c1	inconclusive: 10.4 µM [inhibitor, single point]

Rewritten with bars between the fields: part of the list above.
SMILES | Potency
CC(OC(=O)C1CCC(=O)N1)C(=O)Nc1cc(Cl)cc(Cl)c1 (centres undefined) | inactive
FC(F)(F)c1cnc(-c2cnc(-c3cccnc3)nc2)c(Cl)c1 | inactive
CCOC(=O)[C@@H]1[C@H]2COc3cc(OC)ccc3[C@@H]2N2C(=O)N(c3ccc(Br)cc3)C(=O)[C@@]12C | inactive
O=C(NCc1ccccc1)C(c1cccnc1)N(C(=O)c1ccccn1)c1cccc(F)c1 (centres undefined) | inactive
